# The other results are listed elsewhere or left out. These are raw signals, not scaled to a control.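 First-pass screen: polymyxin B was added at a level that permeabilizes the Salmonella outer membrane while sparing the inner membrane. DMSO wells, with and without polymyxin B, defined maximum growth. Because plates differed from one another, each plate's data were ranked separately and the compounds with the lowest OD600 were carried forward as hits.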
# Tested on: Salmonella enterica serovar Typhimurium SL1344
# Assay: bacterial growth OD600 after 18 h with compound and polymyxin B; higher = more bacterial growth (less inhibition)
# Conditions: 50 µM, Mueller-Hinton broth
Compound,bacterial growth OD600 (polymyxin B 0.75 µg/mL),bacterial growth OD600 (polymyxin B 1 µg/mL)
CCOC(=O)C1CCCN(C2CCN(c3ccc(C(=O)NCCN4CCOCC4)cc3)CC2)C1 (centres undefined),0.996,–
COc1ccccc1CCNC1CCN(c2ccc(C(=O)N(C)C)cc2)CC1,0.823,–
COCCO[C@H]1[C@H](NC(=O)C(C)C)c2ccccc2C12CCN(C(=O)c1cc(CC(C)C)on1)CC2,0.885,–
Cc1ccnc(N2CCC(C3CCN(Cc4cccnc4)CC3)C2)n1 (centres undefined),0.801,–
Cn1cc(CCC(=O)NCc2cccnc2Oc2ccccc2F)cn1,0.816,–
CN(Cc1ccon1)C(=O)C1(N2CCCCC2)Cc2ccccc2C1,0.781,–
COC(=O)C1CCCCN1C(=O)c1c(OC)cc(=O)n2c1CCN(Cc1cc(C)c(C)cc1C)CC2 (centres undefined),0.808,–
CCN1CCN(C2(C(=O)N3CCC[C@H]3CO)Cc3ccccc3C2)CC1,0.84,–
CN(CCC1CCOCC1)C(=O)c1cc(COc2ccccc2F)[nH]n1,0.782,–
Cc1cnc(-n2ncc(C(=O)N(C)CC(O)c3ccccc3)c2C2CC2)nc1-c1cccs1 (centres undefined),0.892,–
O=C(NCCCN1CCCC(O)C1)c1ccc(OC2CCN(C(=O)C3CC3)CC2)cc1 (centres undefined),–,1.06
CO[C@H]1[C@H](NC(=O)Cc2ccccc2)c2ccccc2C12CCN(C(=O)COc1ccccc1)CC2,0.792,–
CC[C@H](C)[C@H](NC1CCN(c2ccc(C(=O)N3CCN(CC)CC3)cc2)CC1)C(=O)OC,0.762,–
CC(=O)c1ccc(-c2cc(F)cc3c2OC(CNC(=O)Cc2ccccc2F)C3)s1 (centres undefined),0.605,–
Cc1ccccc1N1CCN(c2ncccc2CNC(=O)c2ccoc2)CC1,–,0.543
CCN1CCN(C(=O)c2ccc(N3CCC(NCc4cc5ccccc5s4)CC3)cc2)CC1,0.737,–
COc1ccc(CN2CCOC(Cc3ccccc3)C2)cc1OC (centres undefined),0.798,–
Cc1c[nH]c(CN(C)C(=O)CC(c2ccccc2)c2ccc(Cl)cc2)n1 (centres undefined),–,0.012
COc1ccc(Cc2nc3ccc(C(=O)N4CCN(C5CCCC5)CC4)cc3o2)cc1,0.752,–
CCC(NC(=O)C1CCCN(c2nc(C)c3ccc(OC)cc3n2)C1)c1cccs1 (centres undefined),0.01,–
CC(C)(O)C#Cc1cccc(C(=O)NCCN2Cc3ccccc3OC(c3ccsc3)C2)c1 (centres undefined),0.08,–
CSc1ccccc1C(=O)NCc1c(C)ncc2c1CCN(C(=O)c1cc3ccccc3o1)C2,0.004,–
COc1ccc(-c2nn(-c3ccccc3)cc2CN2CCN3CCCC3C2)c(F)c1 (centres undefined),–,1.08
Cc1nc(N(C)C2CCCCC2)ncc1C(C)NC(=O)Cc1ccccn1 (centres undefined),0.896,–
C=CCS(=O)(=O)N1CCC2(CCCN(CCCc3ccccc3)C2=O)C1 (centres undefined),–,0.986
COc1ccc(CC2=NOC(C(=O)NCc3csc(-c4cccs4)n3)C2)cc1 (centres undefined),0.737,–
CN1C(=O)CC(CC(=O)N2CCC(N3CCSCC3)CC2)(c2ccc(-c3ccccc3)cc2)C1=O (centres undefined),0.672,–
COc1cc(-c2n[nH]cc2CN2CCCCC2c2nccs2)cc(OC)c1OC (centres undefined),–,0.903
CCc1ccc(CN(C)C(=O)CCc2nnc(COc3ccccc3)o2)cc1,–,0.825

# Single entries from the entries so far:
# Under bacterial growth OD600 (polymyxin B 0.75 µg/mL), COc1ccc(CN2CCOC(Cc3ccccc3)C2)cc1OC (centres undefined) is entered as 0.798
# Under bacterial growth OD600 (polymyxin B 0.75 µg/mL), CN1C(=O)CC(CC(=O)N2CCC(N3CCSCC3)CC2)(c2ccc(-c3ccccc3)cc2)C1=O (centres undefined) is entered as 0.672
